{
  "sequences": {"note": "Chains of the proteins cited; added tags and fusions are not shown. Lines headed by an entry give the natural chain unless they say otherwise; changes in a name come on top.", "UniProt Q9H6S0": "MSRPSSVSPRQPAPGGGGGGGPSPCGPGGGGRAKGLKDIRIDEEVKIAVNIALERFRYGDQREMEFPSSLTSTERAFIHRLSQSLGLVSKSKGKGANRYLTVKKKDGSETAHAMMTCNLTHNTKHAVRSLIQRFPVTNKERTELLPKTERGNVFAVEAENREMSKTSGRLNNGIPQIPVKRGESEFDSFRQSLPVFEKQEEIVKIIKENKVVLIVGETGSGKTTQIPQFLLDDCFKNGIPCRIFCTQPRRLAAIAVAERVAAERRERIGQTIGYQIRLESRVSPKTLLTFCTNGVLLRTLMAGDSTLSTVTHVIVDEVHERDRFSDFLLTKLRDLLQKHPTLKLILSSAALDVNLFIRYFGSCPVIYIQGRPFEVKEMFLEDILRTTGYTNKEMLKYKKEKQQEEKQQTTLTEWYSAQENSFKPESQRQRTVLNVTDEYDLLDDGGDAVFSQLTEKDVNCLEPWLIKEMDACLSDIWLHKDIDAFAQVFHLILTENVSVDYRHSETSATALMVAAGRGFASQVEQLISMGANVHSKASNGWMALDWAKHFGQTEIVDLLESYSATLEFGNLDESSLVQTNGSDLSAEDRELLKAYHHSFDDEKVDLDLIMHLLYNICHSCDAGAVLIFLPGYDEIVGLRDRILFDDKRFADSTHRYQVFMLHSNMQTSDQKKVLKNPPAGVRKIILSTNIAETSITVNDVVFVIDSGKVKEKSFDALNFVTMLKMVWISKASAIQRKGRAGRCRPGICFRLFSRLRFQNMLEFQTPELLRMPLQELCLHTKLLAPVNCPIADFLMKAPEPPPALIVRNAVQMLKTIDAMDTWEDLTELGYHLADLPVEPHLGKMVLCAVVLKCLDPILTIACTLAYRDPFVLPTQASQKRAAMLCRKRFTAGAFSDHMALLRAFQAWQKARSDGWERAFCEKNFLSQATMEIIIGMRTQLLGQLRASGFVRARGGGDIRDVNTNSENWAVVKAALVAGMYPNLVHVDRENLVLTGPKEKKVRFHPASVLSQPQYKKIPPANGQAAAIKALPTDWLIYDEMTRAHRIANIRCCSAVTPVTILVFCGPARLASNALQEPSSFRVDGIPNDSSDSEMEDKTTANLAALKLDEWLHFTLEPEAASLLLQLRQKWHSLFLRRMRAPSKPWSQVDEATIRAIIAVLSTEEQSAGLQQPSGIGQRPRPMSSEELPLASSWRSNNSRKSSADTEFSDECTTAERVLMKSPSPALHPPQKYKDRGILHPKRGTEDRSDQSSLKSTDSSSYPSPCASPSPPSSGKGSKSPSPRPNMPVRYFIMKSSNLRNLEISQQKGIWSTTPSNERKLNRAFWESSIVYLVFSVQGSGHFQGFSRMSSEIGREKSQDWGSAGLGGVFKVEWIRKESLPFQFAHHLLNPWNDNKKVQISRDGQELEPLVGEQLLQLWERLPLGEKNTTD", "UniProt O75132": "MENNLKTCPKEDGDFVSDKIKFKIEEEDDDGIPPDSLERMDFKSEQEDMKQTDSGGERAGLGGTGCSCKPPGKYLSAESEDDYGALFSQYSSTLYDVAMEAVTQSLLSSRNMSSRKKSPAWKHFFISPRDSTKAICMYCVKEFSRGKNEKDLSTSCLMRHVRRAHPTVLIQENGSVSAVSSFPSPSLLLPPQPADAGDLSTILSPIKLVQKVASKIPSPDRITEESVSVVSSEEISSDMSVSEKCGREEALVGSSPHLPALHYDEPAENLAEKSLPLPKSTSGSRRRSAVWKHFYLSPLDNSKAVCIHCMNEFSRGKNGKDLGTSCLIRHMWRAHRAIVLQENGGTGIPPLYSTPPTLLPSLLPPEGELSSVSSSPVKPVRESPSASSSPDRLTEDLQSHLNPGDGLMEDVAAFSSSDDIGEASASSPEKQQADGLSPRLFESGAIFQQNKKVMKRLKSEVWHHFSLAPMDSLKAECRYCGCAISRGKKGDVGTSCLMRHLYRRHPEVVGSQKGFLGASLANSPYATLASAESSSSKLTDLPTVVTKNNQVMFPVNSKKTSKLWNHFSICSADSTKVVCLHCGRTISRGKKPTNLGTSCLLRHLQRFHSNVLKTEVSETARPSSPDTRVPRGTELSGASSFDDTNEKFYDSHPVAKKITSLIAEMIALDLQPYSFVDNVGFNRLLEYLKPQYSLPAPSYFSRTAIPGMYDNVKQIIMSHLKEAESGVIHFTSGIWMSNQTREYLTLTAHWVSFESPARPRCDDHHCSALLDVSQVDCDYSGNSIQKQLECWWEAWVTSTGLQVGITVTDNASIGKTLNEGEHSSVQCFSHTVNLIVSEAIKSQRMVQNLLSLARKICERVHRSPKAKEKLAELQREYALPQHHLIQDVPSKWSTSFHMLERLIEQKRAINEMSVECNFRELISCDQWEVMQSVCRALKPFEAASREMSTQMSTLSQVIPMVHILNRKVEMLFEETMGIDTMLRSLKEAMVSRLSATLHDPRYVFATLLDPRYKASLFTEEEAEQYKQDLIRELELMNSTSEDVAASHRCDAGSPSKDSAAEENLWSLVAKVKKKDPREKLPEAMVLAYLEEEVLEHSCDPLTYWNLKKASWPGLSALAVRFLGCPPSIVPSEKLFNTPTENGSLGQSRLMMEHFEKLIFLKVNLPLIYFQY", "UniProt A8MPS7": "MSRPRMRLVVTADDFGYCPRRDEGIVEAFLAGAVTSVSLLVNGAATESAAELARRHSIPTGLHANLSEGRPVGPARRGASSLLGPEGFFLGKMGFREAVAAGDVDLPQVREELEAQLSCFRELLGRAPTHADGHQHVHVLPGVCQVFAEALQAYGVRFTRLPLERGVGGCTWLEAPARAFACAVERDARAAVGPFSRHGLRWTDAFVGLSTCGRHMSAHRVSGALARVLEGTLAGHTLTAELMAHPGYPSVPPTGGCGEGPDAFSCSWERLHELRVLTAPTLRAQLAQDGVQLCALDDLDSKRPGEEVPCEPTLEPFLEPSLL", "UniProt Q12768": "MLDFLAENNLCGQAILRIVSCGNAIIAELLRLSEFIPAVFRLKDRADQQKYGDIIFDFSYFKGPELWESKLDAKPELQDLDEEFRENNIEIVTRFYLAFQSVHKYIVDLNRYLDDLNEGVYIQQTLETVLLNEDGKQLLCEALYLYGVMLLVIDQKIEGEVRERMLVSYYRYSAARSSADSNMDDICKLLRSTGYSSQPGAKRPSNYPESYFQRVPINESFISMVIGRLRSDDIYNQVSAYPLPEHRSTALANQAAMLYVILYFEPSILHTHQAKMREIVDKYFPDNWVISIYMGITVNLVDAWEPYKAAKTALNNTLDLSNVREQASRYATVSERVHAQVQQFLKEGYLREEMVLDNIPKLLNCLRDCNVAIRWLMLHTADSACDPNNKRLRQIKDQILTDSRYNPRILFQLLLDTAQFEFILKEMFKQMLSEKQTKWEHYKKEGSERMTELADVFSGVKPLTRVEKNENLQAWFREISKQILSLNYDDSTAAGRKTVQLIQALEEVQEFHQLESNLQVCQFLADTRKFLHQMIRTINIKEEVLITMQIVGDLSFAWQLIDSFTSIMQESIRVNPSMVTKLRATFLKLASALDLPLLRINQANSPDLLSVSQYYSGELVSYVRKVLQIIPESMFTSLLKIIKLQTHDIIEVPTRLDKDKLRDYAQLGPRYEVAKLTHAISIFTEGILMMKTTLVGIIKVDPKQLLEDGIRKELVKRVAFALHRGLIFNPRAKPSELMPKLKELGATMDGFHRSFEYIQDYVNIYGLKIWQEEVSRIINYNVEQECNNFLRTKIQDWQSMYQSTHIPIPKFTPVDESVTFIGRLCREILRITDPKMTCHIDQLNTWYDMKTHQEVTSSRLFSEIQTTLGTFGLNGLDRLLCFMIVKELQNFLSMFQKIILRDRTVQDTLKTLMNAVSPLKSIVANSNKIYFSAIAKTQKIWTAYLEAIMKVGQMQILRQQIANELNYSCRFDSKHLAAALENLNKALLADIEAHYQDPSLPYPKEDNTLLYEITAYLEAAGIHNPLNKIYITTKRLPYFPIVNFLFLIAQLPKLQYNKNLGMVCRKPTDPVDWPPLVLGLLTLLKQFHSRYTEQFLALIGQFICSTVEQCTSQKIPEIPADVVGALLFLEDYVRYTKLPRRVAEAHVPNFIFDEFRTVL", "UniProt O43379": "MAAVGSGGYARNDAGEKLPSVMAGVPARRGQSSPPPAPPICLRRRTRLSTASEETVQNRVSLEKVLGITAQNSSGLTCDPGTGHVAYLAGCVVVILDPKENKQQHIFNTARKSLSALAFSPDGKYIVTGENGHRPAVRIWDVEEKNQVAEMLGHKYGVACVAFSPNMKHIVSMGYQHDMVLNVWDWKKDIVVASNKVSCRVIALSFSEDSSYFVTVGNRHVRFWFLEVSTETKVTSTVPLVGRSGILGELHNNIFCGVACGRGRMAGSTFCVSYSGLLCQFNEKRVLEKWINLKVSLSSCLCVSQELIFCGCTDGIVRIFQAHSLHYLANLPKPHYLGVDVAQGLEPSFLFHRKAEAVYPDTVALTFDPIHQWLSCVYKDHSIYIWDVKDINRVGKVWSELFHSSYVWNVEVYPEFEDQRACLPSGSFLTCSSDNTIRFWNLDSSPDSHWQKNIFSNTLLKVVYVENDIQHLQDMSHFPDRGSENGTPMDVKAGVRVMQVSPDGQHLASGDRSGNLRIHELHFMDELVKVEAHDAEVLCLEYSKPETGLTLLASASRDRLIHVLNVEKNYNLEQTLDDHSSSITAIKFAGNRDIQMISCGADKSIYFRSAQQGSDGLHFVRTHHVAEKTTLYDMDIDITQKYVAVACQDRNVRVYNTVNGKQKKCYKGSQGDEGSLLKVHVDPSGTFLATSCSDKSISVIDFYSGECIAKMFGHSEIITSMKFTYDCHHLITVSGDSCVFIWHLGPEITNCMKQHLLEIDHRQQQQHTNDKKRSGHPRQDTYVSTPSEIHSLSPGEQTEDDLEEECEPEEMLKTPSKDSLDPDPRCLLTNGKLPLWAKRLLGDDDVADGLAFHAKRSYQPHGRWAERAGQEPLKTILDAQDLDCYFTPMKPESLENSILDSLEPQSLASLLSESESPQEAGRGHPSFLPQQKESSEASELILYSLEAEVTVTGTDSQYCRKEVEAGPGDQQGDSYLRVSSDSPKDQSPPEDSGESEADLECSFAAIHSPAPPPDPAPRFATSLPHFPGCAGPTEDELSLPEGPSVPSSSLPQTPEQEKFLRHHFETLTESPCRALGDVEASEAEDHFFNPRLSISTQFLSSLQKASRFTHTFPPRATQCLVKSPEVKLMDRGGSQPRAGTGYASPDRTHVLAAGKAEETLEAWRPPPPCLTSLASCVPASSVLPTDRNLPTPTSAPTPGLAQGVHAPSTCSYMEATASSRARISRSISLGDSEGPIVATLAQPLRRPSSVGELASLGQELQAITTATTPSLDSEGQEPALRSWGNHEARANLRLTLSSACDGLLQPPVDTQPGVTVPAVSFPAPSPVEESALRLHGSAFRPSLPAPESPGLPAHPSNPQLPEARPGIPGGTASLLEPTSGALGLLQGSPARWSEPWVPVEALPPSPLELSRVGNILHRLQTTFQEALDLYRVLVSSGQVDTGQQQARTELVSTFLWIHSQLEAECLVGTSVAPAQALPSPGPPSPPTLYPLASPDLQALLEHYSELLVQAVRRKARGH"},
  "source": "the supplement of paper PMC11732987",
  "about": "“Enantioselective OTUD7B fragment discovery through chemoproteomics screening and high-throughput optimisation” (Communications Chemistry, 2025)",
  "note": "This is one part of the list. The data scatter; read single values as rough.",
  "data": [
    {"compound": "ClCC(=O)N[C@@H]1CCCc2ccccc12", "test": "log2 mean competition ratio of IA-DTB cysteine labelling (DMSO/compound) (log2 ratio); higher = stronger cysteine engagement by compound", "conditions": "50 µM; treatment time: 4 h; cell line lysate: HEK293T", "protocol": "(§1)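 IA-DTB competitive cysteine chemoproteomics in HEK293T RIPA lysate. Lysates were treated with compound 29 or 30 at 50 or 200 µM for 4 h, then IA-DTB (500 µM, 1 h), trypsin-digested, NeutrAvidin-enriched and analysed by diaPASEF. Competition ratio = intensity DMSO / intensity compound (n=4 treated, n=64 DMSO); binding: mean log2 CR ≥ 1 and p ≤ 0.05 plus QC filters. Target is the cysteine site.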", "values": [
      {"target": "YTHDC2 C245 (UniProt Q9H6S0)", "log2 mean competition ratio": -0.00239},
      {"target": "XPO7 C525", "log2 mean competition ratio": -0.0356},
      {"target": "XPO7 C606", "log2 mean competition ratio": -0.139},
      {"target": "YTHDC2 C460 (UniProt Q9H6S0)", "log2 mean competition ratio": 0.0658},
      {"target": "ZBED4 C326 (UniProt O75132)", "log2 mean competition ratio": 0.114},
      {"target": "WDR26 C238", "log2 mean competition ratio": -0.0113},
      {"target": "WDR11 C1071 (UniProt Q9BZH6)", "log2 mean competition ratio": 0.176},
      {"target": "XPO5 C736 (UniProt Q9HAV4)", "log2 mean competition ratio": 0.521},
      {"target": "WDFY3 C896 (UniProt Q8IZQ1)", "log2 mean competition ratio": -0.195},
      {"target": "YDJC C119 (UniProt A8MPS7)", "log2 mean competition ratio": -0.18},
      {"target": "ZADH2 C55 (UniProt Q8N4Q0)", "log2 mean competition ratio": 0.553},
      {"target": "VPS35L C20 (UniProt Q7Z3J2)", "log2 mean competition ratio": 0.423},
      {"target": "WASHC5 C1064 (UniProt Q12768)", "log2 mean competition ratio": 0.0585},
      {"target": "WDTC1 C236 (UniProt Q8N5D0)", "log2 mean competition ratio": -0.0123},
      {"target": "WDR43 C380 (UniProt Q15061)", "log2 mean competition ratio": 0.0368},
      {"target": "YARS1 C519", "log2 mean competition ratio": -0.0997},
      {"target": "XPO4 C54 (UniProt Q9C0E2)", "log2 mean competition ratio": -0.0781},
      {"target": "WDR62 C599 (UniProt O43379)", "log2 mean competition ratio": -0.223},
      {"target": "XPO1 C528 (UniProt O14980)", "log2 mean competition ratio": -0.0407},
      {"target": "WDFY3 C575 (UniProt Q8IZQ1)", "log2 mean competition ratio": 0.463}
    ]},
    {"compound": "ClCC(=O)N[C@@H]1CCCc2ccccc12", "test": "log2 mean competition ratio of IA-DTB cysteine labelling (DMSO/compound) (log2 ratio); higher = stronger cysteine engagement by compound", "conditions": "200 µM; treatment time: 4 h; cell line lysate: HEK293T", "protocol": "as §1", "values": [
      {"target": "YTHDC2 C245 (UniProt Q9H6S0)", "log2 mean competition ratio": -0.0633},
      {"target": "XPO7 C525", "log2 mean competition ratio": -0.583},
      {"target": "XPO7 C606", "log2 mean competition ratio": -0.257},
      {"target": "YTHDC2 C460 (UniProt Q9H6S0)", "log2 mean competition ratio": -0.541},
      {"target": "ZBED4 C326 (UniProt O75132)", "log2 mean competition ratio": 0.388},
      {"target": "WDR26 C238", "log2 mean competition ratio": -0.212},
      {"target": "WDR11 C1071 (UniProt Q9BZH6)", "log2 mean competition ratio": -0.611},
      {"target": "XPO5 C736 (UniProt Q9HAV4)", "log2 mean competition ratio": -0.114},
      {"target": "WDFY3 C896 (UniProt Q8IZQ1)", "log2 mean competition ratio": 0.247},
      {"target": "YDJC C119 (UniProt A8MPS7)", "log2 mean competition ratio": -0.0959},
      {"target": "ZADH2 C55 (UniProt Q8N4Q0)", "log2 mean competition ratio": 0.025},
      {"target": "VPS35L C20 (UniProt Q7Z3J2)", "log2 mean competition ratio": -0.0616},
      {"target": "WASHC5 C1064 (UniProt Q12768)", "log2 mean competition ratio": -0.0925},
      {"target": "WDTC1 C236 (UniProt Q8N5D0)", "log2 mean competition ratio": -0.0819},
      {"target": "WDR43 C380 (UniProt Q15061)", "log2 mean competition ratio": -0.171},
      {"target": "YARS1 C519", "log2 mean competition ratio": 0.0488},
      {"target": "XPO4 C54 (UniProt Q9C0E2)", "log2 mean competition ratio": -0.00442},
      {"target": "WDR62 C599 (UniProt O43379)", "log2 mean competition ratio": -0.147},
      {"target": "XPO1 C528 (UniProt O14980)", "log2 mean competition ratio": -0.193},
      {"target": "WDFY3 C575 (UniProt Q8IZQ1)", "log2 mean competition ratio": 0.125}
    ]}
  ]
}
